These are yes or no findings as the source states them, for the method shown. In cells and extracts the contact can be indirect. Some results given as binding are weak or reduced against the parent protein; the word gives no strength. Sequences can lack the tags named with a protein.

By UniProt entry, the sequences of proteins in these tests, tags left out. Residues count along the entry.
UniProt P01033, residues 24-207: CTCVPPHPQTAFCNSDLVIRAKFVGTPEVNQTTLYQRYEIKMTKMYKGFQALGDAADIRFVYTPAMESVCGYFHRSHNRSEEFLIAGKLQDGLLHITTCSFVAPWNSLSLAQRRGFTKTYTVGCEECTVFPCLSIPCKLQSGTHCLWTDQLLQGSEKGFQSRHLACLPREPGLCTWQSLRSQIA

The assay has as its target GST-TIMP-1 protein (tissue inhibitor of metalloproteinase 1 fused to GST) (UniProt P01033). Briefly: pull-down; GST-TIMP-1 from BL21 as bait, Myc-GnT-V made in HEK293T cells as prey; Pierce GST kit; detection by western blot; only the target purified. On the technique in general: Immunoblotting shows a protein as a band on a membrane.

B1: Myc-GnT-V protein (N-acetylglucosaminyltransferase V) (enzyme, UniProt Q09328 1-741)
chain: MALFTPWKLSSQKLGFFLVTFGFIWGMMLLHFTIQQRTQPESSSMLREQILDLSKRYIKALAEENRNVVDGPYAGVMTAYDLKKTLAVLLDNILQRIGKLESKVDNLVVNGTGTNSTNSTTAVPSLVALEKINVADIINGAQEKCVLPPMDGYPHCEGKIKWMKDMWRSDPCYADYGVDGSTCSFFIYLSEVENWCPHLPWRAKNPYEEADHNSLAEIRTDFNILYSMMKKHEEFRWMRLRIRRMADAWIQAIKSLAEKQNLEKRKRKKVLVHLGLLTKESGFKIAETAFSGGPLGELVQWSDLITSLYLLGHDIRISASLAELKEIMKKVVGNRSGCPTVGDRIVELIYIDIVGLAQFKKTLGPSWVHYQCMLRVLDSFGTEPEFNHANYAQSKGHKTPWGKWNLNPQQFYTMFPHTPDNSFLGFVVEQHLNSSDIHHINEIKRQNQSLVYGKVDSFWKNKKIYLDIIHTYMEVHATVYGSSTKNIPSYVKNHGILSGRDLQFLLRETKLFVGLGFPYEGPAPLEAIANGCAFLNPKFNPPKSSKNTDFFIGKPTLRELTSQHPYAEVFIGRPHVWTVDLNNQEEVEDAVKAILNQKIEPYMPYEFTCEGMLQRINAFIEKQDFCHGQVMWPPLSALQVKLAEPGQSCKQVCQESQLICEPSFFQHLNKDKDMLKYKVTCQSSELAKDILVPSFDPKNKHCVFQGDLLLFSCAGAHPRHQRVCPCRDFIKGQVALCKDCL
As for B1, the binding entry is “binds”.

The values are drawn from publication PMC10948582.
